# Test results: patent US20250296961A1 (The University of Hong Kong, priority 2021, published 2025)
# Plain letter strings leave the end groups untold.
# Assay: peptide made by a vendor (Fmoc solid-phase peptide synthesis)
# Settings: whole synthesis
substance,measurement,value
TFFRLFNRAKRHHGYKRKFHSpSp,outcome,could not be synthesized due to the weak stability during fabrication
